From US20100035823A1, “LIGANDS OF SH3 DOMAINS” (ALBERT EINSTEIN COLLEGE OF MEDICINE OF YESHIVA UNIVERSITY, priority 2005, published 2010)
For part of these data: Part of at least one peptide drawing is inferred or uncertain, most often the ends. For part of these data: At least one structure is not confirmed: it was looked up by name or label, or the drawing left a doubt. Where a SMILES comes first, the peptide text is derived from it. [ ]: non-standard residue; d: D form. The star is where a group is joined. Cyclopropanecarbonyl(1-CN) = N#CC1(C(=O)*)CC1; Benzoyl(2,3-diOH) = O=C(c1cccc(O)c1O)*; Nicotinoyl(2-OH) = O=C(c1cccnc1O)*; X1 = O=C([C@H](O)c1ccccc1)*; Dap = NC[C@H](N)C(=O)O

Legend:
[1] = molecular target: T1, Fyn SH3-GST fusion protein (Homo sapiens, UniProt P06241); experiment: Competition ELISA against microwell-bound biotinylated peptoid 6; assay type: binding; conditions: competition with biotinylated peptoid 6, read-out: IC50 (relative affinity) in ELISA assay
T1 construct: The GST-SH3 fusion proteins, Fyn (85-139) and Lck (54-120); purchased Santa Cruz Biotechnology
Description: We employed Arg-Ala-Leu-Pro-Pro-Leu-Pro as the starting point for Fyn SH3 ligand optimization, a sequence that is consistent with most known SH3 domain-binding elements. We initially introduced diversity elements on the N-terminus of this peptide to furnish Library I (FIG. 2). The 720 individual members of this library were subsequently assessed for SH3 binding potency via an ELISA-based screen. The latter was performed in parallel using streptavidin-coated 96 well plates. A biotinylated-peptide SH3-directed ligand was appended to the individual wells and a GST-SH3 domain fusion protein was subsequently introduced. Competition between members of the library and the microwell-bound biotinylated peptide ligand determined the extent to which the GST-SH3 protein was retained by the individual wells after washing. The latter was quantified using an anti-GST-peroxidase fusion construct. The assay is dependent upon a strong binding interaction between the GST-SH3 domain and the biotinylated peptide ligand associated with the streptavidin-coated well. […]
Screening of the Peptide/Nonpeptide Conjugate Library. […] 100 μL of 1M sulfuric acid solution was introduced to stop the peroxidase reaction and absorbance was measured at 450 nm with a plate reader. […]

Yes SH3 domain = Yes SH3 domain (Homo sapiens, UniProt P07947); experiment: Determination of Kd values by equilibrium dialysis (fluorescence), Yes SH3 domain; assay type: binding; conditions: read-out: Dissociation constant (KD), Yes
Hck SH3 domain = molecular target: T2, Hck SH3 domain (Homo sapiens, UniProt P08631); experiment: Determination of Kd values by equilibrium dialysis (fluorescence), Hck SH3 domain; assay type: binding; conditions: read-out: Dissociation constant (KD), Hck
T2 construct: particularly with respect to the SH3 domains from Lck and Hck

Src SH3 domain = Src SH3 domain (Homo sapiens, UniProt P12931); experiment: Determination of Kd values by equilibrium dialysis (fluorescence), Src SH3 domain; assay type: binding; conditions: read-out: Dissociation constant (KD), Src
Lck SH3 domain = molecular target: T3, Lck SH3 domain (Homo sapiens, UniProt P06239); experiment: Determination of Kd values by equilibrium dialysis (fluorescence), Lck SH3 domain; assay type: binding; conditions: read-out: Dissociation constant (KD), Lck
T3 construct: The GST-SH3 fusion proteins, Fyn (85-139) and Lck (54-120); GST; purchased Santa Cruz Biotechnology

[2] = molecular target: T4, Fyn SH3 domain (Fyn SH3-GST fusion protein) (Homo sapiens, UniProt P06241); experiment: Determination of Kd values by equilibrium dialysis (fluorescence), Fyn SH3 domain; assay type: binding
T4 construct: The GST-SH3 fusion proteins, Fyn (85-139) and Lck (54-120); purchased Santa Cruz Biotechnology
Description: Determination of Kd Values. […] Therefore, the KD values for the SH3 complexes of these species were determined via equilibrium dialysis. All samples were prepared in buffer containing TBS and 1 mM DTT at pH 7.5. Slide-A-Lyzer dialysis slide cassette (0.1-0.5 mL capacity) was employed and contained 30 nM or 500 nM Fyn SH3-GST fusion proteins. The cassettes (400 μL final volume) were placed in a beaker containing a volume of buffer solution (TBS and 1 mM DTT at pH 7.5) that was at least 400-fold greater than that of the sample volume in the dialysis cassette. As a consequence, concentrations of non-SH3-bound peptide were held constant in the dialysis slide cassette over the course of the experiment. Equilibrium dialysis experiments were performed over a period of at least 16 hr and maintained at 4°C. Differences in the fluorescence between the solution in the slide cassette and that in the beaker were measured. The excitation wavelength employed for the peptides were 328 nm. Emission was monitored at 378 nm. The Kd values were calculated from the following equation for fluorescent peptides 8a, 11a, 14 and 7, where [E]t=total enzyme concentration; [E·L]=enzyme-peptide complex; [L]=free peptide concentration.
For non-fluorescent peptide 9, the following equation was used for the determination of Kd′:
Where Kd=the dissociation constant of competition fluorescent peptide, [L′]=total lion-fluorescent peptide concentration, [L]=total competitive fluorescent peptide concentration, [E]t=total SH3 domain concentration; [E·L]=enzyme-peptide (fluorescent competitive peptide) complex concentration.

WASp/Fyn SH3 complex = molecular target: T5, WASp/Fyn SH3 complex (Homo sapiens, UniProt P06241); experiment: WASP-Fyn binding assay (GST pull-down from U937 cell lysates, anti-WASp Western blot); conditions: Fyn-SH3 GST beads, FIG. 5
T5 construct: The GST-SH3 fusion proteins, Fyn (85-139) and Lck (54-120); purchased Santa Cruz Biotechnology; host or cells: WASp endogenous, from U937 cell lysate

**Q.** Which IC50 [1] does the source give for CC(C)C[C@H](NC(=O)[C@@H]1CCCN1C(=O)[C@@H]1CCCN1C(=O)[C@H](CC(C)C)NC(=O)[C@H](C)NC(=O)[C@H](CCCNC(=N)N)NC(=O)C1(C#N)CC1)C(=O)N1CCC[C@H]1C(N)=O [Ligand 8e] ({Cyclopropanecarbonyl(1-CN)}-RALPPLP-NH2) here?
**A.** 45 µM

**Q.** Which results are given for CC(=O)N[C@@H](CCCNC(=N)N)C(=O)N[C@@H](C)C(=O)N[C@@H](CC(C)C)C(=O)N1CCC[C@H]1C(=O)N1CCC[C@H]1C(=O)N[C@@H](CC(C)C)C(=O)N1CCC[C@H]1C(N)=O [Ligand 9, reference compound] (Ac-RALPPLP-NH2; C-terminus assumed)?
**A.** Kd (Yes SH3 domain): 17 ± 6 µM; Kd (Hck SH3 domain): 31 ± 8 µM; Kd (Src SH3 domain): 21 ± 4 µM; Kd (Lck SH3 domain): 19 ± 8 µM; Kd ([2]; Fyn SH3 domain, equilibrium dialysis, 4°C, pH 7.5, read-out: Dissociation constant (KD), Fyn): 15 ± 4 µM; Selectivity among Src family SH3 domains (in words) ([2]; Fyn versus other Src kinase family SH3 domains): unable to discriminate between the various SH3 domains of the Src family members

**Q.** CC(C)C[C@H](NC(=O)[C@@H]1CCCN1C(=O)[C@@H]1CCCN1C(=O)[C@H](CC(C)C)NC(=O)[C@H](CNC(=O)[C@H](O)c1ccccc1)NC(=O)[C@H](CCCNC(=N)N)NC(=O)c1cccnc1O)C(=O)N1CCC[C@H]1C(=O)N[C@@H](CNC(=O)c1cccc(O)c1O)C(N)=O [Ligand 14] ({Nicotinoyl(2-OH)}-R[Dap](X1)LPPLP[Dap](Benzoyl(2,3-diOH))-NH2) was tested. Which “Enhanced potency in disrupting formation of the WASp/Fyn complex relative to peptide 9” value (WASp/Fyn SH3 complex) did it give?
**A.** greater than 100 fold

**Q.** And the “Enhancement in Fyn SH3 affinity relative to parent peptide 9” value ([2]; ratio of KD values versus acetylated derivative 9)?
**A.** ~1,000 fold
